Measurements: PMC8752572
No constants are given. Whether binding was seen depends on the method and setting. For some of these results: In cells and extracts the contact can be indirect. Some results given as binding are weak or reduced against the parent protein; the word gives no strength. For some of these results: Tags and fused reporters may be left off the sequences shown. Blank lines part the entries; values can stand above or below the binder they belong to.

Key:
[1] = target: T1, myc-tagged SETD3 (SET domain-containing 3) (UniProt Q86TU7); assay: co-IP; truncated mutants of USP27 tested with SETD3 (Fig. 1I) and of SETD3 with USP27 (Fig. 1J), 'as indicated'; method, cells and tags not named for these panels
T1 sequence: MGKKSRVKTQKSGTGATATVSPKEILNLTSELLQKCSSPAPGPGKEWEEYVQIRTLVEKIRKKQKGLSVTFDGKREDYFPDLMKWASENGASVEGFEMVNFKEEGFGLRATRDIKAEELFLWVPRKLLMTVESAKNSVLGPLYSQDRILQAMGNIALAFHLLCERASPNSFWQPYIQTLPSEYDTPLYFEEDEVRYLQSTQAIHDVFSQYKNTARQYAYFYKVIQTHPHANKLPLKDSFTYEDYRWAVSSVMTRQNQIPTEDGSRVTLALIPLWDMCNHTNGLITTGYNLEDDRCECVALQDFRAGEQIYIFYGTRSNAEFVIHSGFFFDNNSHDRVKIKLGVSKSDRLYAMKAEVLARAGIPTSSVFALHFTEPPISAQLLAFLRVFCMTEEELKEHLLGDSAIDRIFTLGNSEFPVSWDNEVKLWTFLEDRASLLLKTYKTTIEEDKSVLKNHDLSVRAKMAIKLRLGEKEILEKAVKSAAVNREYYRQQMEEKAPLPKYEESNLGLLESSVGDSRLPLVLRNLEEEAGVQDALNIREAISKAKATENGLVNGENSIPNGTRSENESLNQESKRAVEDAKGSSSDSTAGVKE

[2] = target: T1, myc-tagged SETD3 (SET domain-containing 3); assay: co-IP; DUB library screen: each Flag-tagged DUB transfected with myc-tagged SETD3 into HEK293T cells, 48 h later co-immunoprecipitation and western blotting
[3] = target: T1, myc-tagged SETD3 (SET domain-containing 3); assay: co-IP; SETD3 and USP27 plasmids transfected alone or together into 293T cells; immunoprecipitation in both directions and western blot; lysis buffer 50 mM Tris-HCl pH 8.0, 150 mM NaCl, 1% NP-40, 2 mM EDTA, 0.1% SDS; overnight at 4 °C with protein A-Sepharose
[4] = target: T2, Flag-SETD3 fusion protein (UniProt Q86TU7); assay: proximity ligation; in situ PLA (Duolink In Situ Red) in HEK293T cells transfected with myc-USP27 and Flag-SETD3; anti-Flag rabbit and anti-myc mouse antibodies; control: myc-USP27 with empty Flag vector
T2 sequence: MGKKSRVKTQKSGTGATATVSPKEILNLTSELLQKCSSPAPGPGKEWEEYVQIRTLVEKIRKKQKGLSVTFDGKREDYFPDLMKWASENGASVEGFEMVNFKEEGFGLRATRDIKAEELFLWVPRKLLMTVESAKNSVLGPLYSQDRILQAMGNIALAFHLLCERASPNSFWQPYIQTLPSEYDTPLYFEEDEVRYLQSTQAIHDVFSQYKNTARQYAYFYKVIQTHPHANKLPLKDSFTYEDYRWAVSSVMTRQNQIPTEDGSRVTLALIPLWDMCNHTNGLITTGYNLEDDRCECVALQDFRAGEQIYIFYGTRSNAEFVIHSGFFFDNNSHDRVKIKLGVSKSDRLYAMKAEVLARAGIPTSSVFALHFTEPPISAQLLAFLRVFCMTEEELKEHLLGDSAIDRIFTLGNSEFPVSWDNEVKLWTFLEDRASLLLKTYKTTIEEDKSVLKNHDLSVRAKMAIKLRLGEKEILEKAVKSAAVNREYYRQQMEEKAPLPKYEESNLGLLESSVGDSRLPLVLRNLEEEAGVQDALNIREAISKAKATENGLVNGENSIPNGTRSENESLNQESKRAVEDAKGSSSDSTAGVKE

[5] = target: T3, Flag-tagged USP27 (ubiquitin-specific peptidase 27) (UniProt A6NNY8); assay: co-IP; SETD3 and USP27 plasmids transfected alone or together into 293T cells; immunoprecipitation in both directions and western blot; lysis buffer 50 mM Tris-HCl pH 8.0, 150 mM NaCl, 1% NP-40, 2 mM EDTA, 0.1% SDS; overnight at 4 °C with protein A-Sepharose
T3 sequence: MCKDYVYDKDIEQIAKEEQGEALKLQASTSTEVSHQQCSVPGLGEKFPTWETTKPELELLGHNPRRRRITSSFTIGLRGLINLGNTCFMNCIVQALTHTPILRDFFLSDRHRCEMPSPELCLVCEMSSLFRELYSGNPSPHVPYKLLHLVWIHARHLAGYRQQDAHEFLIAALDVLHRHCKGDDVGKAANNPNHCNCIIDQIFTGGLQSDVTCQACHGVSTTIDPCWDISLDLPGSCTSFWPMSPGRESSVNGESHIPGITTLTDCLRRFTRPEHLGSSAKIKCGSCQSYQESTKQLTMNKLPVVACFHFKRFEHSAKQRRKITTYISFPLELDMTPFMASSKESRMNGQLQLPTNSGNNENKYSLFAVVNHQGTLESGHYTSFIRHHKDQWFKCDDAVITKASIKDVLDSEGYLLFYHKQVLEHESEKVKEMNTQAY

[6] = target: T4, USP27, endogenous in Hep3B cells (human (endogenous in Hep3B)) (UniProt A6NNY8); assay: co-IP; endogenous proteins in Hep3B cells; immunoprecipitation with anti-USP27 or normal rabbit IgG, blot for SETD3
T4 sequence: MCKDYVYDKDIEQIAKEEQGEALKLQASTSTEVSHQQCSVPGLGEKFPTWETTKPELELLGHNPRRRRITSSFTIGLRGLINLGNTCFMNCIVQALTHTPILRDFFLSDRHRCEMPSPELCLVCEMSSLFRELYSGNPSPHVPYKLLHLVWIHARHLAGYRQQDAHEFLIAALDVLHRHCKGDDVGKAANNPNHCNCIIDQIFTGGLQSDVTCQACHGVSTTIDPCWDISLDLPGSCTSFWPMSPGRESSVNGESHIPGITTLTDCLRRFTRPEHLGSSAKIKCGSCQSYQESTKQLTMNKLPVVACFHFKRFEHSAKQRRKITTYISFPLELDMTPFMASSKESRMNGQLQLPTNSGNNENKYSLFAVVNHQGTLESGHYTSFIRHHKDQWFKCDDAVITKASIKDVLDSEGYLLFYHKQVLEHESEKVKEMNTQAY

GST-USP27 fusion protein = target: T5, GST-USP27 fusion protein (UniProt A6NNY8); assay: pull-down; 5 μg GST-USP27 mixed with 5 μg purified Flag-SETD3, incubated with GST binding resins at 4 °C for 8 h, washed three times, western blot; both purified
T5 sequence: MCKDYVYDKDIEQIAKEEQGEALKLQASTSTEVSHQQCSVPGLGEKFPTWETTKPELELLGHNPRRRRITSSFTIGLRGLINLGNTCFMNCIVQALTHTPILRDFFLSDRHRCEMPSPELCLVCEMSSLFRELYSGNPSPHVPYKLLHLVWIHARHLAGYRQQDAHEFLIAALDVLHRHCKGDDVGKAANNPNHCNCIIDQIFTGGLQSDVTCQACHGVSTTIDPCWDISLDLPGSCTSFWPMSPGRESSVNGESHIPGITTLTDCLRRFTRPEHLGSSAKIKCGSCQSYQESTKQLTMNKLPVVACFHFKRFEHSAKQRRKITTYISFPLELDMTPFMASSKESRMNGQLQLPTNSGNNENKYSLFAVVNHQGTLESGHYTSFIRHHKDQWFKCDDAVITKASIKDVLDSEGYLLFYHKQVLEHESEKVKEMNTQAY

binding [1]: binds
B1: USP27 C-terminal 78-422 fragment (domain or fragment, UniProt A6NNY8 78-422)
chain: RGLINLGNTCFMNCIVQALTHTPILRDFFLSDRHRCEMPSPELCLVCEMSSLFRELYSGNPSPHVPYKLLHLVWIHARHLAGYRQQDAHEFLIAALDVLHRHCKGDDVGKAANNPNHCNCIIDQIFTGGLQSDVTCQACHGVSTTIDPCWDISLDLPGSCTSFWPMSPGRESSVNGESHIPGITTLTDCLRRFTRPEHLGSSAKIKCGSCQSYQESTKQLTMNKLPVVACFHFKRFEHSAKQRRKITTYISFPLELDMTPFMASSKESRMNGQLQLPTNSGNNENKYSLFAVVNHQGTLESGHYTSFIRHHKDQWFKCDDAVITKASIKDVLDSEGYLLFYHKQV

binding [2]: binds | binding [3]: binds
B2: Flag-tagged USP27 (ubiquitin-specific peptidase 27) (enzyme, UniProt A6NNY8 1-438)
chain: MCKDYVYDKDIEQIAKEEQGEALKLQASTSTEVSHQQCSVPGLGEKFPTWETTKPELELLGHNPRRRRITSSFTIGLRGLINLGNTCFMNCIVQALTHTPILRDFFLSDRHRCEMPSPELCLVCEMSSLFRELYSGNPSPHVPYKLLHLVWIHARHLAGYRQQDAHEFLIAALDVLHRHCKGDDVGKAANNPNHCNCIIDQIFTGGLQSDVTCQACHGVSTTIDPCWDISLDLPGSCTSFWPMSPGRESSVNGESHIPGITTLTDCLRRFTRPEHLGSSAKIKCGSCQSYQESTKQLTMNKLPVVACFHFKRFEHSAKQRRKITTYISFPLELDMTPFMASSKESRMNGQLQLPTNSGNNENKYSLFAVVNHQGTLESGHYTSFIRHHKDQWFKCDDAVITKASIKDVLDSEGYLLFYHKQVLEHESEKVKEMNTQAY

binding [4]: binds
B3: myc-USP27 (enzyme, UniProt A6NNY8 1-438)
chain: MCKDYVYDKDIEQIAKEEQGEALKLQASTSTEVSHQQCSVPGLGEKFPTWETTKPELELLGHNPRRRRITSSFTIGLRGLINLGNTCFMNCIVQALTHTPILRDFFLSDRHRCEMPSPELCLVCEMSSLFRELYSGNPSPHVPYKLLHLVWIHARHLAGYRQQDAHEFLIAALDVLHRHCKGDDVGKAANNPNHCNCIIDQIFTGGLQSDVTCQACHGVSTTIDPCWDISLDLPGSCTSFWPMSPGRESSVNGESHIPGITTLTDCLRRFTRPEHLGSSAKIKCGSCQSYQESTKQLTMNKLPVVACFHFKRFEHSAKQRRKITTYISFPLELDMTPFMASSKESRMNGQLQLPTNSGNNENKYSLFAVVNHQGTLESGHYTSFIRHHKDQWFKCDDAVITKASIKDVLDSEGYLLFYHKQVLEHESEKVKEMNTQAY

binding [5]: binds
B4: myc-tagged SETD3 (SET domain-containing 3) (enzyme, UniProt Q86TU7 1-594)
chain: MGKKSRVKTQKSGTGATATVSPKEILNLTSELLQKCSSPAPGPGKEWEEYVQIRTLVEKIRKKQKGLSVTFDGKREDYFPDLMKWASENGASVEGFEMVNFKEEGFGLRATRDIKAEELFLWVPRKLLMTVESAKNSVLGPLYSQDRILQAMGNIALAFHLLCERASPNSFWQPYIQTLPSEYDTPLYFEEDEVRYLQSTQAIHDVFSQYKNTARQYAYFYKVIQTHPHANKLPLKDSFTYEDYRWAVSSVMTRQNQIPTEDGSRVTLALIPLWDMCNHTNGLITTGYNLEDDRCECVALQDFRAGEQIYIFYGTRSNAEFVIHSGFFFDNNSHDRVKIKLGVSKSDRLYAMKAEVLARAGIPTSSVFALHFTEPPISAQLLAFLRVFCMTEEELKEHLLGDSAIDRIFTLGNSEFPVSWDNEVKLWTFLEDRASLLLKTYKTTIEEDKSVLKNHDLSVRAKMAIKLRLGEKEILEKAVKSAAVNREYYRQQMEEKAPLPKYEESNLGLLESSVGDSRLPLVLRNLEEEAGVQDALNIREAISKAKATENGLVNGENSIPNGTRSENESLNQESKRAVEDAKGSSSDSTAGVKE

binding [6]: binds
B5: SETD3, endogenous in Hep3B cells (enzyme, UniProt Q86TU7 1-594)
chain: MGKKSRVKTQKSGTGATATVSPKEILNLTSELLQKCSSPAPGPGKEWEEYVQIRTLVEKIRKKQKGLSVTFDGKREDYFPDLMKWASENGASVEGFEMVNFKEEGFGLRATRDIKAEELFLWVPRKLLMTVESAKNSVLGPLYSQDRILQAMGNIALAFHLLCERASPNSFWQPYIQTLPSEYDTPLYFEEDEVRYLQSTQAIHDVFSQYKNTARQYAYFYKVIQTHPHANKLPLKDSFTYEDYRWAVSSVMTRQNQIPTEDGSRVTLALIPLWDMCNHTNGLITTGYNLEDDRCECVALQDFRAGEQIYIFYGTRSNAEFVIHSGFFFDNNSHDRVKIKLGVSKSDRLYAMKAEVLARAGIPTSSVFALHFTEPPISAQLLAFLRVFCMTEEELKEHLLGDSAIDRIFTLGNSEFPVSWDNEVKLWTFLEDRASLLLKTYKTTIEEDKSVLKNHDLSVRAKMAIKLRLGEKEILEKAVKSAAVNREYYRQQMEEKAPLPKYEESNLGLLESSVGDSRLPLVLRNLEEEAGVQDALNIREAISKAKATENGLVNGENSIPNGTRSENESLNQESKRAVEDAKGSSSDSTAGVKE

binding (GST-USP27 fusion protein): binds
B6: Flag-SETD3 fusion protein (enzyme, UniProt Q86TU7 1-594)
chain: MGKKSRVKTQKSGTGATATVSPKEILNLTSELLQKCSSPAPGPGKEWEEYVQIRTLVEKIRKKQKGLSVTFDGKREDYFPDLMKWASENGASVEGFEMVNFKEEGFGLRATRDIKAEELFLWVPRKLLMTVESAKNSVLGPLYSQDRILQAMGNIALAFHLLCERASPNSFWQPYIQTLPSEYDTPLYFEEDEVRYLQSTQAIHDVFSQYKNTARQYAYFYKVIQTHPHANKLPLKDSFTYEDYRWAVSSVMTRQNQIPTEDGSRVTLALIPLWDMCNHTNGLITTGYNLEDDRCECVALQDFRAGEQIYIFYGTRSNAEFVIHSGFFFDNNSHDRVKIKLGVSKSDRLYAMKAEVLARAGIPTSSVFALHFTEPPISAQLLAFLRVFCMTEEELKEHLLGDSAIDRIFTLGNSEFPVSWDNEVKLWTFLEDRASLLLKTYKTTIEEDKSVLKNHDLSVRAKMAIKLRLGEKEILEKAVKSAAVNREYYRQQMEEKAPLPKYEESNLGLLESSVGDSRLPLVLRNLEEEAGVQDALNIREAISKAKATENGLVNGENSIPNGTRSENESLNQESKRAVEDAKGSSSDSTAGVKE
